# Laboratory results from PMC3173608, “Atomic Resolution Insights into Curli Fiber Biogenesis” (Structure(London, England:1993), 2011).
# No constants are given. Whether binding was seen depends on the method and setting. In cells and extracts the contact can be indirect. Some results given as binding are weak or reduced against the parent protein; the word gives no strength.
# B1: CsgG (in vivo, in E. coli cells) (protein, UniProt P0AEA2 16-277)
# chain: CLTAPPKEAARPTLMPRAQSYKDLTHLPAPTGKIFVSVYNIQDETGQFKPYPASNFSTAVPQSATAMLVTALKDSRWFIPLERQGLQNLLNERKIIRAAQENGTVAINNRIPLQSLTAANIMVEGSIIGYESNVKSGGVGARYFGIGADTQYQLDQIAVNLRVVNVSTGEILSSVNTSKTILSYEVQAGVFRFIDYQRLLEGEVGYTSNEPVMLCLMSAIETGVIFLINDGIDRGLWDLQNKAERQNDILVKYRHMSVPPES
# Biological target: CsgG (in vivo, in E. coli cells) (E. coli) (UniProt P0AEA2)
# Assay: cross-linking; disulfide linkages induced in vivo by incubation with diamide; data not shown
binder,measurement,value
B1,binding,binds
